# Results as given in PubChem BioAssay (NCATS).
# Inconclusive means that the source gave no clear call. Such entries were picked first, then a sample of the others. Potencies beside an inconclusive call are fits to weak or partial responses and may not hold up. Activity calls are given as the source filed them. Calls follow the shape of the dose curve; as a rule, active = well fitted curve in the direction sought with a large enough effect; inconclusive = small, poorly fitted or top-dose-only effect, or effect the other way, or another doubt; inactive = no such curve, though single readings can be large or run the other way.
# Experiment: DH5-alpha competent E. coli microbial cell viability qHTS against the NCATS CANVASS Library (AID 1347377)
# Settings: BacTiter-Glo ATP luminescence, overnight; series mostly up to 46.1 µM
# Source text: Natural products and their derivatives continue to be wellsprings of nascent therapeutic potential. However, many laboratories have limited resources for biological evaluation, leaving their previously isolated or synthesized compounds largely or completely untested. To address this issue, the Canvass library of natural products was assembled (https://tripod.nih.gov/canvass), in collaboration with academic and industry researchers, for quantitative high-throughput screening (qHTS) across a diverse set of cell-based and biochemical assays. The pure (>85% purity by liquid chromatography/mass spectrometry [LC/MS]) Canvass library of 346 natural products were submitted by 45 academic laboratories and companies around the world. We collected pure natural products to circumvent deconvolution and structure elucidation due to time and resource limitations. The library was formatted into 1536-well plates and evaluated in 50 qHTS (in an 11-pnt concentration series) bioassays with broad scope of disease-relevant mechanisms. The resulting data set from 50 different assays was then systematically analyzed to identify overall trends and specific natural products with interesting biological activities. Reported herein are the results of each individual qHTS and their corresponding assay protocol. The BacTiter-Glo microbial cell viability assay is a homogeneous method for determining the number of viable bacterial cells in culture based on quantitation of the ATP present. ATP is an indicator of metabolically active cells. The homogeneous assay procedure involves adding a single reagent (BacTiter-GloTM Reagent) directly to bacterial cells in medium and measuring luminescence. National Center for Advancing Translational Sciences (NCATS), Rockville, MD National Institute of Health (NIH), Bethesda, Maryland
# DH5-alpha competent E.coli cytotoxicity protocol: 1. In a 1536 well, tissue culture treated white solid bottom plates (Greiner Bio-One North America), 5 uL of DH5-alpha competent E. coli suspension (0.9 OD culture diluted 0.2 OD) was dispensed into columns 1, 2, and 5-48 using the Multidrop Combi dispenser (Thermo Fisher Scientific). 2. Controls and compounds were pin transferred (~23 nL volume) to the assay plates via Wako Pin-tool (Wako Automation, Richmond VA) equipped with a 1536 pin head. The compounds were transferred to columns 5-48 resulting in a final concentration ranging from 0.17nM to 92uM. Daunomycin was used as a control in various concentrations (1mM working concentration; 1:2 dilution; 16 points; n=2; column 2, rows) for a final concentration range of 0.2 nM to 9.2 uM. 3. The assay plates were incubated overnight at 37C, 5% CO2, 95% humidity. 4. 2.5 uL of BacTiterGlo solution (Promega) was then added to the assay plates (column 1-48, rows 1-32). The assay plates were incubated at room temperature for 20 min. 5. Luminescence signal was acquired via the ViewLux plate reader using a clear emission filter, 2 second exposure and 2x binning settings.
row,Structure (SMILES),Potency
1,CC1=CC2CC[C@@H]3[C@@H](C)C[C@H](C)[C@@H](C1)N23 (stereo partly drawn),"inconclusive: 10.5 µM [rising, partial curve, poor fit]"
2,CO[C@@H](/C=C/CC/C=C/C(=O)O)[C@@H](O)[C@H](C)/C=C(\C)[C@@H](O)[C@H](C)C(=O)CCCC1CC(=O)NC(=O)C1,"inconclusive: 11.7 µM [rising, partial curve, poor fit]"
3,O=C(c1ccccc1O)c1[nH]c(Cl)c(Cl)c1-n1c(C(=O)c2ccccc2O)cc(Cl)c1Cl,"inconclusive: 7.41 µM [rising, full curve]"
4,C[C@]12CC(O)C3[C@@H](CCC4C[C@@H](O)CC[C@@]43CO)[C@@]1(O)CCC2C1=CC(=O)OC1 (stereo partly drawn),"inconclusive: 0.0074 µM [rising, full curve, poor fit]"
5,CC=C1CN(C=O)[C@H]2C[C@@H]1[C@@H](C(=O)OC)[C@@]13CCOC21Nc1ccccc13 (stereo partly drawn),inactive
6,CO[C@H]1[C@H](O[C@H]2CC[C@]3(C=O)[C@H]4CC[C@]5(C)[C@@H](C6=CC(=O)OC6)CC[C@]5(O)[C@@H]4CC[C@]3(O)C2)O[C@H](C)[C@H](O)[C@@H]1OC,inactive
7,C=C[C@]12C=CCN3CC[C@@]4(c5ccccc5NC(=O)[C@@H]4C1)[C@@H]32,inactive
8,C/C=C1/CN2C3CC1C1=CCC(=O)N4c5ccccc5[C@@]3(C[C@@H]2C2=C[C@H]3C5CC6N(CC[C@@]67c6ccccc6N(C2=O)[C@@H]37)C/C5=C/C)[C@H]14 (stereo partly drawn),"inconclusive: 11.7 µM [cytotoxic, partial curve, poor fit]"
9,CCC(=O)CCCCC[C@@H]1NC(=O)[C@H]2CCCCN2C(=O)[C@H]([C@@H](C)CC)NC(=O)[C@H](Cc2cn(OC)c3ccccc23)NC1=O,inactive
10,O=C1C[C@@H]2OCC=C3CN4CC[C@]56c7ccccc7N1[C@H]5[C@H]2[C@H]3C[C@H]46,inactive
11,CCC(=O)N[C@@H](C[C@H](C)C(Cl)(Cl)Cl)C(=O)N1C(=O)C=C(OC)[C@@H]1C[C@H](C)C(Cl)Cl,"inconclusive: 26.3 µM [rising, single point]"
12,c1ccc2c3c([nH]c2c1)CNCC3,"inconclusive: 8.31 µM [rising, partial curve, poor fit]"
13,C=C1[C@@H](C)[C@H]2[C@H](Cc3ccccc3)NC(=O)[C@]23OC(=O)/C=C/[C@H](O)CCC[C@@H](C)C/C=C/[C@H]3[C@@H]1O,inactive

# Part of the list above in another layout.
row	Structure (SMILES)	Potency
11	CCC(=O)N[C@@H](C[C@H](C)C(Cl)(Cl)Cl)C(=O)N1C(=O)C=C(OC)[C@@H]1C[C@H](C)C(Cl)Cl	inconclusive: 26.3 µM [rising, single point]
13	C=C1[C@@H](C)[C@H]2[C@H](Cc3ccccc3)NC(=O)[C@]23OC(=O)/C=C/[C@H](O)CCC[C@@H](C)C/C=C/[C@H]3[C@@H]1O	inactive
